Screening data, single-dose tests

By UniProt entry, the sequences of proteins in these tests, tags left out. Residues count along the entry.
UniProt A4I591, 1-473: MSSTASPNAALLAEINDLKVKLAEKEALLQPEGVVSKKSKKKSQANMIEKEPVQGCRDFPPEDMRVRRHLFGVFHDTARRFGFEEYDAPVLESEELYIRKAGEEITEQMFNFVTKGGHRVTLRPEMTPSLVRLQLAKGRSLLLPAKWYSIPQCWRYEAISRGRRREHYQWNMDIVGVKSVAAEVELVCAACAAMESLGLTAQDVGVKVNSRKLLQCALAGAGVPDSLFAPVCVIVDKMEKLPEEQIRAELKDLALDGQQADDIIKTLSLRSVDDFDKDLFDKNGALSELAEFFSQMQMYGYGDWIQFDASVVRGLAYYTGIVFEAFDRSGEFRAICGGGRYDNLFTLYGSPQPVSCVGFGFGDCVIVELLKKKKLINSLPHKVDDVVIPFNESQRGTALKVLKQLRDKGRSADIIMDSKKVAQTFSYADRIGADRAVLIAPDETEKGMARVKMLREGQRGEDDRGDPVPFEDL
UniProt I6X8D2, whole entry: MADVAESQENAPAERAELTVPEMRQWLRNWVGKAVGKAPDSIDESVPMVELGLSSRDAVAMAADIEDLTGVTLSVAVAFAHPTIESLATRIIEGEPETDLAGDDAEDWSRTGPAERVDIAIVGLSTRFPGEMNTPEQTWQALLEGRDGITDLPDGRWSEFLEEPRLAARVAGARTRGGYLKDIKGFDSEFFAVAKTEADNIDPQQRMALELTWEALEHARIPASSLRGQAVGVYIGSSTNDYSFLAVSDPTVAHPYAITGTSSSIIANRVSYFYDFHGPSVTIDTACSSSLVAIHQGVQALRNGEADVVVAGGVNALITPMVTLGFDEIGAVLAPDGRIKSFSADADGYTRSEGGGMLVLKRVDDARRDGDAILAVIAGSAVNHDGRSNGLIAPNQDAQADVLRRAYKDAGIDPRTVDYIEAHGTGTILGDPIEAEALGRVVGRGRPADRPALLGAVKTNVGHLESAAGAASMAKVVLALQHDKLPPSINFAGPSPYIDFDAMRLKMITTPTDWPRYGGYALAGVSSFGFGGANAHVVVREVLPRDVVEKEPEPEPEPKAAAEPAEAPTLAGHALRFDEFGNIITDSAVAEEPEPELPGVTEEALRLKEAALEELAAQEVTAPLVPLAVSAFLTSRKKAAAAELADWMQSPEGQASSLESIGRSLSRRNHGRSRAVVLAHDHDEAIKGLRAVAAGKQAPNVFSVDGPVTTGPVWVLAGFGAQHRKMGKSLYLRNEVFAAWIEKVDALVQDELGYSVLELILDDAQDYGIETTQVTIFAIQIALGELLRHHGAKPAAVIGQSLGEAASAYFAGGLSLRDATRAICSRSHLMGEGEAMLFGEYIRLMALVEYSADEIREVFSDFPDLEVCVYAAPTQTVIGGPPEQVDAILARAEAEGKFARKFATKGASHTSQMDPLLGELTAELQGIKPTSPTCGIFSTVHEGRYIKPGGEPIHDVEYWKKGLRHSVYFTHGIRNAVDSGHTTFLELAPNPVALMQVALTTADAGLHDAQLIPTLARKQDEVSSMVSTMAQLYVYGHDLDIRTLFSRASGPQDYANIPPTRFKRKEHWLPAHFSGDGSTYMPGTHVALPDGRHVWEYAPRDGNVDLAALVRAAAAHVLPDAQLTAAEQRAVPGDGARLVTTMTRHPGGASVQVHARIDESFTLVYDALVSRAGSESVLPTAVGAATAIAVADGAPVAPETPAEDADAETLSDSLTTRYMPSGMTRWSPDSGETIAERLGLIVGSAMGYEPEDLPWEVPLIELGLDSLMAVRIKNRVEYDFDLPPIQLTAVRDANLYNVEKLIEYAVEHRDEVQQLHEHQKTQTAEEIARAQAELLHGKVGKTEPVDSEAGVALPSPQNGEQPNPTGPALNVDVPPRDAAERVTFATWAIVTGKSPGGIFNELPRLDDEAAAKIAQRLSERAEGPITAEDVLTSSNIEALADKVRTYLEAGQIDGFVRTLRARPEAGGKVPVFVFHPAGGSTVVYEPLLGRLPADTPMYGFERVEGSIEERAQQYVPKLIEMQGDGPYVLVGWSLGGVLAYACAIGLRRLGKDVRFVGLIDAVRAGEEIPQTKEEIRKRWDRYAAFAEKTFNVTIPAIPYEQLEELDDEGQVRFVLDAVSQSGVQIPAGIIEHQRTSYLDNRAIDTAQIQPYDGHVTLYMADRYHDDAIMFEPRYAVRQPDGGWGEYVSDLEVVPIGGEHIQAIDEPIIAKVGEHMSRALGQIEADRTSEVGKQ

Source: ChEMBL document CHEMBL3988442, “University of Dundee, Small-Polar-MMV Screening Library” (2021).

A: 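Histidine-tRNA ligase, Leishmania infantum (UniProt A4I591). Enzyme assay of histidyl-tRNA synthetase; the read-out is not stated. Compounds at 30 µM. Direction is inferred from retests: higher values go with stronger inhibition. The assay is labelled LdHisRS but filed under L. infantum. Of about 69,000 compounds tested this way, about 410 (0.6%) reached 50% or more in at least one test.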
B: 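Enzyme assay of the thioesterase domain of polyketide synthase 13; the read-out is not stated. Target: Polyketide synthase Pks13, Mycobacterium tuberculosis (UniProt I6X8D2). Compounds at 30 µM. Higher reads as stronger inhibition (inferred from which compounds were picked for retests). Size under these conditions: about 67,000 compounds, about 300 of them at 50% or above in at least one test.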

The filed quantity is “Percent Effect” (%).
The controls that fix the scale are not given in the record; negative values are as filed.
Compounds were drawn at random from those tested, without regard to their results.

{"compound": "CN1CCc2c(NC(=O)NCc3ccccc3Cl)cccc21", "A": 18.31, "B": -8.091}
{"compound": "Cc1cc(C(=O)N2CC[C@@H]3CN(c4ncccn4)CCO[C@@H]3C2)c(C)o1", "A": 19.55, "B": -15.97}
{"compound": "Cc1noc(-c2ccc(N3CCC(C(=O)N4CCCC4)CC3)nc2)n1", "A": 5, "B": 3.482}
{"compound": "Cc1ccc2c(n1)N(Cc1cccnc1)CCN(C(=O)C1CCC1)C2", "A": -5.882, "B": -8.525}
{"compound": "c1ccc(OCCN2CCc3c(ncn3C3CC3)C2)cc1", "A": 20.69, "B": -10.06}
{"compound": "CCOCC1CN(C(=O)c2cscn2)Cc2cn(C)nc21", "stereo": "stereo not drawn", "A": 15.6, "B": -14.29}
{"compound": "CCS(=O)(=O)CCn1ccc(NC(=O)CCc2cccc(C)c2)n1", "A": -19.23, "B": 2.949}
{"compound": "COCC1Cn2nnc(-c3cnn(C)c3)c2CN1Cc1ccsc1", "stereo": "stereo not drawn", "A": 28.44, "B": -8.106}
{"compound": "CC(c1ccccc1)N(C)C(=O)CNCCn1cccn1", "stereo": "stereo not drawn", "A": 19.51, "B": 12.76}
{"compound": "CC1c2ncc(COc3cccnc3)n2CCN1Cc1ccco1", "stereo": "stereo not drawn", "A": 15.84, "B": -9.716}
{"compound": "CCNc1cc2c(nn1)CCN(C(=O)c1ccc(C(N)=O)cc1)C2", "A": 19.64, "B": -25.55}
{"compound": "CCNC(=O)CN1CCCN(C(=O)C2CCCc3[nH]ncc32)CC1", "stereo": "stereo not drawn", "A": 16.98, "B": -6.769}
{"compound": "Cc1nc(C(C)NC(=O)c2cn(C/C=C/c3ccccc3)nn2)n[nH]1", "stereo": "stereo not drawn", "A": 7.692, "B": -3.592}
{"compound": "CCC(CO)Nc1nc(C(F)F)nc2ccccc12", "stereo": "stereo not drawn", "A": 3.371, "B": -6.699}
{"compound": "CCn1nc2c(cc1=O)CN(Cc1nc3ccccc3o1)CC2", "A": 12.94, "B": -6.338}
{"compound": "Cn1cc(C2CCCN2C(=O)COCCc2ccccc2)cn1", "stereo": "stereo not drawn", "A": 16.36, "B": -5.229}
{"compound": "Cc1cc(-c2nccn2CCN2CCCCC2CO)oc1C", "stereo": "stereo not drawn", "A": 21.88, "B": -13.85}
{"compound": "COc1cc(CNC2CCN(c3ccccc3)C2)cc(OC)c1OC", "stereo": "stereo not drawn", "A": 7.895}
{"compound": "COc1cc2c(nn1)CCN(Cc1ncc(C(C)(C)C)o1)C2", "A": 16.44, "B": -0.944}
{"compound": "CS(=O)(=O)c1ccc(-c2cc(C3CC3)c(C#N)c(N)n2)cc1", "A": 8.85, "B": 62.74}
{"compound": "CN(C)C(=O)C1OC2(CCN(C(=O)c3ccoc3)CC2)c2ccccc21", "stereo": "stereo not drawn", "A": 20.51, "B": 5.593}
{"compound": "Cc1n[nH]c(C)c1CN1CCC(c2cc(C(C)C)n[nH]2)CC1", "A": 20, "B": -27.44}
{"compound": "CS(=O)(=O)NCCNC(=O)Cc1ccc(Br)s1", "A": 14.46, "B": -31.01}
{"compound": "COCCN1CCCC(O)(CN2CCN(Cc3ccncc3)CC2)C1=O", "stereo": "stereo not drawn", "A": 16.67, "B": -6.706}
{"compound": "COC(=O)c1cccn1C1CCN(Cc2nc3ccccc3o2)CC1", "A": 5.128, "B": -26.88}
{"compound": "CCN(CCN1CCOCC1)C(=O)c1cccnc1", "A": 5.714, "B": -32.47}

Once more, the final 2:

compound,A,B
COC(=O)c1cccn1C1CCN(Cc2nc3ccccc3o2)CC1,5.128,-26.88
CCN(CCN1CCOCC1)C(=O)c1cccnc1,5.714,-32.47